Data as given in PubChem BioAssay AID1259405 (NCATS, 2018)
In all, the deposit lists about 50,000 reagents; this is a random part of them. Of all reagents, about 4,000 (8%) were called active. 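Mouse siRNA library applied to hamster cells; one well for each siRNA.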 A number with no mark means an inactive call.

Purpose: 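Knock-downs that lift recombinant protein yield in hamster ovary cells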 (primary screen)
Cells: Chinese hamster CHO-K1 ovary cells with stable secreted eGFP expression
Knock-down reagent: single siRNA against mouse genes, 0.8 pmol siRNA per well (2 µl of 400 nM stock)
Timing: 3 days
Measured: 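Percent of the per-plate non-targeting control median for intracellular GFP per well by laser scanning cytometry and for cell viability by ATP luminescence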
Reading the numbers: GFP, % of control: higher = more GFP per well, higher productivity; viability (ATP), % of control: higher = more viable cells (more ATP)
Active means: 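Called active when intracellular GFP, relative to negative control, is at or above 120%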

| GFP, % of control | viability (ATP), % of control | Gene | PubChem SID |
| --- | --- | --- | --- |
| 74.7 | 102 | Ap5b1 (adaptor-related protein complex 5, beta 1 subunit) | SID363540014 |
| 90.9 | 93.5 | Ap5b1 (adaptor-related protein complex 5, beta 1 subunit) | SID363561315 |
| 56.1 | 65.4 | Ap5b1 (adaptor-related protein complex 5, beta 1 subunit) | SID363564351 |
| 102 | 52.1 | Tbc1d10c (TBC1 domain family, member 10c) | SID363545259 |
| 64.3 | 62 | Tbc1d10c (TBC1 domain family, member 10c) | SID363548772 |
| 65.7 | 52.4 | Tbc1d10c (TBC1 domain family, member 10c) | SID363562578 |
| 74.7 | 89 | Pdpn (podoplanin) | SID363540046 |
| 36.8 | 30.2 | Pdpn (podoplanin) | SID363561347 |
| 85.8 | 87.9 | Pdpn (podoplanin) | SID363564383 |
| 79.8 | 53.3 | Cnppd1 (cyclin Pas1/PHO80 domain containing 1) | SID363543660 |
| 46.5 | 49.3 | Cnppd1 (cyclin Pas1/PHO80 domain containing 1) | SID363553153 |
| 43.4 | 60.9 | Cnppd1 (cyclin Pas1/PHO80 domain containing 1) | SID363559001 |
| 86 | 93.7 | Gas7 (growth arrest specific 7) | SID363555494 |
| 45.1 | 25.3 | Gas7 (growth arrest specific 7) | SID363564155 |
| 89.8 | 84.9 | Gas7 (growth arrest specific 7) | SID363587701 |
| 53.4 | 103 | Akp3 (alkaline phosphatase 3, intestine, not Mn requiring) | SID363575272 |
| 76.5 | 71.8 | Akp3 (alkaline phosphatase 3, intestine, not Mn requiring) | SID363580904 |
| 47.4 | 60.9 | Akp3 (alkaline phosphatase 3, intestine, not Mn requiring) | SID363583016 |
| 217 (active) | 105 | Sumf2 (sulfatase modifying factor 2) | SID363556362 |
| 76.5 | 108 | Sumf2 (sulfatase modifying factor 2) | SID363586812 |
| 147 (active) | 112 | Sumf2 (sulfatase modifying factor 2) | SID363588920 |
| 50.9 | 55.6 | Opn4 (opsin 4 (melanopsin)) | SID363544826 |
| 56 | 85.1 | Opn4 (opsin 4 (melanopsin)) | SID363551154 |
| 72.8 | 108 | Opn4 (opsin 4 (melanopsin)) | SID363557703 |
| 81.9 | 82.8 | Cobl (cordon-bleu WH2 repeat) | SID363550239 |
| 65.9 | 83.5 | Cobl (cordon-bleu WH2 repeat) | SID363564748 |
| 59.2 | 90.7 | Cobl (cordon-bleu WH2 repeat) | SID363588293 |
| 118 | 83.9 | Gjc3 (gap junction protein, gamma 3) | SID363541582 |
| 78.2 | 60.9 | Gjc3 (gap junction protein, gamma 3) | SID363553174 |
| 63.2 | 52.6 | Gjc3 (gap junction protein, gamma 3) | SID363566498 |
| 143 (active) | 138 | Pgm3 (phosphoglucomutase 3) | SID363568636 |
| 122 (active) | 84.4 | Pgm3 (phosphoglucomutase 3) | SID363576028 |
| 62.6 | 66.1 | Pgm3 (phosphoglucomutase 3) | SID363578844 |

An excerpt taken from the entries so far, as a working copy:
| GFP, % of control | viability (ATP), % of control | Gene | PubChem SID |
| --- | --- | --- | --- |
| 74.7 | 89 | Pdpn (podoplanin) | SID363540046 |
| 36.8 | 30.2 | Pdpn (podoplanin) | SID363561347 |
| 85.8 | 87.9 | Pdpn (podoplanin) | SID363564383 |
| 79.8 | 53.3 | Cnppd1 (cyclin Pas1/PHO80 domain containing 1) | SID363543660 |
| 46.5 | 49.3 | Cnppd1 (cyclin Pas1/PHO80 domain containing 1) | SID363553153 |
| 43.4 | 60.9 | Cnppd1 (cyclin Pas1/PHO80 domain containing 1) | SID363559001 |

The listing continues.
| GFP, % of control | viability (ATP), % of control | Gene | PubChem SID |
| --- | --- | --- | --- |
| 125 (active) | 108 | Hmx3 (H6 homeobox 3) | SID363569485 |
| 75.1 | 78.5 | Hmx3 (H6 homeobox 3) | SID363577229 |
| 92 | 75.1 | Hmx3 (H6 homeobox 3) | SID363578637 |
| 36.7 | 43.3 | Slc25a26 | SID363545734 |
| 86.7 | 95.6 | Slc25a26 | SID363549247 |
| 18.1 | 11.1 | Slc25a26 | SID363563053 |
| 102 | 87.1 | Cherp (calcium homeostasis endoplasmic reticulum protein) | SID363569422 |
| 61.9 | 66.8 | Cherp (calcium homeostasis endoplasmic reticulum protein) | SID363577166 |
| 99.9 | 88.3 | Cherp (calcium homeostasis endoplasmic reticulum protein) | SID363578574 |
| 84.5 | 93.5 | P3h1 (prolyl 3-hydroxylase 1) | SID363553874 |
| 108 | 90.3 | P3h1 (prolyl 3-hydroxylase 1) | SID363561831 |
| 95.8 | 71.2 | P3h1 (prolyl 3-hydroxylase 1) | SID363565569 |
| 47 | 36.5 | Zfp65 (zinc finger protein 65) | SID363541070 |
| 61.9 | 71.8 | Zfp65 (zinc finger protein 65) | SID363555697 |
| 116 | 90.4 | Zfp65 (zinc finger protein 65) | SID363565986 |
| 95.8 | 104 | Cpxm2 (carboxypeptidase X, M14 family member 2) | SID363574276 |
| 42.8 | 38.7 | Cpxm2 (carboxypeptidase X, M14 family member 2) | SID363575332 |
| 59.5 | 68.6 | Cpxm2 (carboxypeptidase X, M14 family member 2) | SID363579908 |
| 90.2 | 77.4 | Pnpla3 (patatin-like phospholipase domain containing 3) | SID363570106 |
| 58.9 | 56.8 | Pnpla3 (patatin-like phospholipase domain containing 3) | SID363576442 |
| 36.3 | 27.4 | Pnpla3 (patatin-like phospholipase domain containing 3) | SID363579610 |
| 82.1 | 93.6 | Pcdhb14 (protocadherin beta 14) | SID363573279 |
| 81.7 | 78.3 | Pcdhb14 (protocadherin beta 14) | SID363588518 |
| 106 | 57.1 | Rgs19 (regulator of G-protein signaling 19) | SID363545175 |
| 89.3 | 66.9 | Rgs19 (regulator of G-protein signaling 19) | SID363548688 |
| 42.9 | 49.5 | Rgs19 (regulator of G-protein signaling 19) | SID363562494 |
| 75.6 | 80.4 | Rassf10 | SID363553791 |
| 65.5 | 62.7 | Rassf10 | SID363561748 |
| 88.8 | 73.2 | Rassf10 | SID363565486 |
| 78.8 | 69.3 | Zfp637 (zinc finger protein 637) | SID363541022 |
| 63.8 | 47.9 | Zfp637 (zinc finger protein 637) | SID363555649 |
| 138 (active) | 83.5 | Zfp637 (zinc finger protein 637) | SID363565938 |
| 101 | 74.9 | Or6c3 (olfactory receptor family 6 subfamily C member 3) | SID363554730 |
| 60.3 | 68.3 | Or6c3 (olfactory receptor family 6 subfamily C member 3) | SID363568177 |
| 78.1 | 99.3 | Or6c3 (olfactory receptor family 6 subfamily C member 3) | SID363586236 |
| 62.9 | 66.4 | Smchd1 (SMC hinge domain containing 1) | SID363542520 |
| 96.2 | 74.5 | Smchd1 (SMC hinge domain containing 1) | SID363552011 |
| 110 | 99.1 | Smchd1 (SMC hinge domain containing 1) | SID363559616 |
| 114 | 98.4 | Rgs13 (regulator of G-protein signaling 13) | SID363570205 |
| 62.7 | 73.5 | Rgs13 (regulator of G-protein signaling 13) | SID363576541 |
| 34.5 | 44 | Rgs13 (regulator of G-protein signaling 13) | SID363579709 |
| 101 | 70.4 | Tmem63b (transmembrane protein 63b) | SID363546856 |
| 78.1 | 63.9 | Tmem63b (transmembrane protein 63b) | SID363549668 |
| 106 | 88.4 | Tmem63b (transmembrane protein 63b) | SID363587722 |
| 60.8 | 40.5 | Gltpd2 (glycolipid transfer protein domain containing 2) | SID363545606 |
| 79.5 | 80.4 | Gltpd2 (glycolipid transfer protein domain containing 2) | SID363549119 |
| 92 | 101 | Gltpd2 (glycolipid transfer protein domain containing 2) | SID363562925 |
| 53.3 | 55.2 | Or10al2 (olfactory receptor family 10 subfamily AL member 2) | SID363544639 |
| 68.6 | 73.2 | Or10al2 (olfactory receptor family 10 subfamily AL member 2) | SID363550967 |
| 67.5 | 29.8 | Or10al2 (olfactory receptor family 10 subfamily AL member 2) | SID363557516 |
| 68.6 | 36.1 | Uggt1 (UDP-glucose glycoprotein glucosyltransferase 1) | SID363545316 |
| 77.3 | 118 | Uggt1 (UDP-glucose glycoprotein glucosyltransferase 1) | SID363548829 |
| 61.3 | 66.3 | Uggt1 (UDP-glucose glycoprotein glucosyltransferase 1) | SID363562635 |
